Values from PubChem BioAssay AID493246 (Drosophila RNAi Screening Center, 2011)
The screen tested about 21,000 reagents; this is a random part of those that have a named target and a result. In the full data, 429 (2%) got an active call. 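Values are raw and not normalised between plates; calls rest on per-plate z-scores that were not deposited.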 The numbers tell different reagents against one gene apart. Names joined by + are all predicted targets of the reagent. No sequences are given here. The record does not give: the amount of reagent, the time to read-out.

Test: 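Genes fly cells need to grow and stay alive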 (primary screen)
Cells: Drosophila Kc and S2R+ cells
Knock-down reagent: long dsRNA against Drosophila genes
Measurement: 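Raw, unnormalised count of remaining cells in each well; per-plate z-scores of cell number underlie the calls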
Direction: Kc cell number and S2R+ cell number: higher = more cells remaining
Hit rule: 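Active when the per-plate z-score of cell number is 3 or more in the direction of fewer cells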

{"target":"CG11241 (GeneID 40492)","dsRNA no.":1,"Kc cell number, rep 1":1.40e6,"Kc cell number, rep 2":1.38e6,"S2R+ cell number, rep 1":1.03e6,"S2R+ cell number, rep 2":1.11e6,"Call":"inactive"}
{"target":"CG3492 (GeneID 37902)","dsRNA no.":1,"Kc cell number, rep 1":1.40e6,"Kc cell number, rep 2":1.46e6,"S2R+ cell number, rep 1":1.15e6,"S2R+ cell number, rep 2":1.24e6,"Call":"inactive"}
{"target":"ND-B14.7 (GeneID 37385)","dsRNA no.":1,"Kc cell number, rep 1":1.52e6,"Kc cell number, rep 2":1.60e6,"S2R+ cell number, rep 1":9.24e5,"S2R+ cell number, rep 2":2.77e5,"Call":"inactive"}
{"target":"ND-B18 (GeneID 32434)","dsRNA no.":1,"Kc cell number, rep 1":1.51e6,"Kc cell number, rep 2":1.55e6,"S2R+ cell number, rep 1":1.07e6,"S2R+ cell number, rep 2":1.20e6,"Call":"inactive"}
{"target":"Elk (GeneID 37047)","dsRNA no.":1,"Kc cell number, rep 1":1.57e6,"Kc cell number, rep 2":1.67e6,"S2R+ cell number, rep 1":1.15e6,"S2R+ cell number, rep 2":9.83e5,"Call":"inactive"}
{"target":"CG12065 (GeneID 31798)","dsRNA no.":1,"Kc cell number, rep 1":5.77e5,"S2R+ cell number, rep 1":8.94e5,"Call":"inactive"}
{"target":"CG12065 (GeneID 31798)","dsRNA no.":2,"Kc cell number, rep 1":1.63e6,"Kc cell number, rep 2":1.70e6,"S2R+ cell number, rep 1":1.12e6,"S2R+ cell number, rep 2":1.25e6,"Call":"inactive"}
{"target":"Gr59e (GeneID 37725)","dsRNA no.":1,"Kc cell number, rep 1":1.46e6,"Kc cell number, rep 2":1.54e6,"S2R+ cell number, rep 1":1.32e6,"S2R+ cell number, rep 2":1.32e6,"Call":"inactive"}
{"target":"CG17994 (GeneID 35550)","dsRNA no.":1,"Kc cell number, rep 1":1.77e6,"Kc cell number, rep 2":1.85e6,"S2R+ cell number, rep 1":1.30e6,"S2R+ cell number, rep 2":1.47e6,"Call":"inactive"}
{"target":"CG7763 (GeneID 36235)","dsRNA no.":1,"Kc cell number, rep 1":1.57e6,"Kc cell number, rep 2":1.61e6,"S2R+ cell number, rep 1":1.43e6,"S2R+ cell number, rep 2":1.51e6,"Call":"inactive"}
{"target":"bark (GeneID 33604)","dsRNA no.":1,"Kc cell number, rep 1":1.58e6,"Kc cell number, rep 2":1.54e6,"S2R+ cell number, rep 1":1.20e6,"S2R+ cell number, rep 2":1.39e6,"Call":"inactive"}
{"target":"CG5500 (GeneID 43233)","dsRNA no.":1,"Kc cell number, rep 1":1.62e6,"Kc cell number, rep 2":1.60e6,"S2R+ cell number, rep 1":1.08e6,"S2R+ cell number, rep 2":1.20e6,"Call":"inactive"}

The list goes on, starting with the last 3 of the part before.
{"target":"CG7763 (GeneID 36235)","dsRNA no.":1,"Kc cell number, rep 1":1.57e6,"Kc cell number, rep 2":1.61e6,"S2R+ cell number, rep 1":1.43e6,"S2R+ cell number, rep 2":1.51e6,"Call":"inactive"}
{"target":"bark (GeneID 33604)","dsRNA no.":1,"Kc cell number, rep 1":1.58e6,"Kc cell number, rep 2":1.54e6,"S2R+ cell number, rep 1":1.20e6,"S2R+ cell number, rep 2":1.39e6,"Call":"inactive"}
{"target":"CG5500 (GeneID 43233)","dsRNA no.":1,"Kc cell number, rep 1":1.62e6,"Kc cell number, rep 2":1.60e6,"S2R+ cell number, rep 1":1.08e6,"S2R+ cell number, rep 2":1.20e6,"Call":"inactive"}
{"target":"Rbp1 (GeneID 41294)","dsRNA no.":1,"Kc cell number, rep 1":1.59e6,"Kc cell number, rep 2":1.63e6,"S2R+ cell number, rep 1":1.27e6,"S2R+ cell number, rep 2":1.41e6,"Call":"inactive"}
{"target":"Cnx99A + Cnx14D","dsRNA no.":1,"Kc cell number, rep 1":1.44e6,"Kc cell number, rep 2":1.39e6,"S2R+ cell number, rep 1":9.84e5,"S2R+ cell number, rep 2":1.09e6,"Call":"inactive"}
{"target":"CG6610 (GeneID 38693)","dsRNA no.":1,"Kc cell number, rep 1":1.71e6,"Kc cell number, rep 2":1.77e6,"S2R+ cell number, rep 1":9.99e5,"S2R+ cell number, rep 2":1.12e6,"Call":"inactive"}
{"target":"Coq4 + frc","dsRNA no.":1,"Kc cell number, rep 1":1.56e6,"Kc cell number, rep 2":1.45e6,"S2R+ cell number, rep 1":1.13e6,"S2R+ cell number, rep 2":1.33e6,"Call":"inactive"}
{"target":"Coq4 + frc","dsRNA no.":2,"Kc cell number, rep 1":1.56e6,"Kc cell number, rep 2":1.78e6,"S2R+ cell number, rep 1":1.39e6,"S2R+ cell number, rep 2":1.60e6,"Call":"inactive"}
{"target":"RalGPS (GeneID 36881)","dsRNA no.":1,"Kc cell number, rep 1":1.41e6,"Kc cell number, rep 2":1.41e6,"S2R+ cell number, rep 1":1.21e6,"S2R+ cell number, rep 2":1.26e6,"Call":"inactive"}
{"target":"RhoL (GeneID 41136)","dsRNA no.":1,"Kc cell number, rep 1":1.44e6,"Kc cell number, rep 2":1.52e6,"S2R+ cell number, rep 1":1.20e6,"S2R+ cell number, rep 2":1.30e6,"Call":"inactive"}
{"target":"Aps (GeneID 39226)","dsRNA no.":1,"Kc cell number, rep 1":1.31e6,"Kc cell number, rep 2":1.40e6,"S2R+ cell number, rep 1":1.13e6,"S2R+ cell number, rep 2":1.27e6,"Call":"inactive"}
{"target":"RFeSP (GeneID 44390)","dsRNA no.":1,"Kc cell number, rep 1":1.69e6,"Kc cell number, rep 2":1.63e6,"S2R+ cell number, rep 1":9.91e5,"S2R+ cell number, rep 2":1.03e6,"Call":"inactive"}
